Taken from: PubChem BioAssay AID1508597 (Cure First, 2020)
Shown is an unselected part of the about 2,100 reagents, in one setting of the screen. 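Calls flag viability under 80% in either arm, not effects specific to rucaparib; the reference for percent is not stated.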 Some reagents were tested in more than one well and are listed for each. Not stated in the record: the 100% reference.

Screen: 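Survival screen with siRNA in ovarian cancer cells derived from patients, with or without rucaparib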 (primary screen)
System: human ovarian carcinoma lines grown from tumours: OCI-P5x (papillary serous) and OCI-C5x (clear cell)
Reagents: siRNA pool against human genes, 1.25 pmol siRNA per well
Duration: 72 h or 96 h, depending on the cell culture
Challenge: rucaparib 20 µM (about IC30) or vehicle, present until read-out
Rucaparib or vehicle: Rucaparib
Cell line: OCI-C5x (clear cell)
Measured: 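Luminescent ATP-based viability assay read 72 or 96 h after transfection, depending on culture, given as normalised percent viability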
Reading the numbers: viability, normalised: higher = more viable cells remaining
Hit rule: 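Active when normalised viability falls below 80 percent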
Calls: active = viability under 80%; inactive = viability 80% or more

The first 7 records as a preview:
| target gene | technical replicate | viability, normalised (%) | activity call |
| --- | --- | --- | --- |
| BOK | 1 | 30.9 | active |
| BOK | 2 | 35.7 | active |
| BOK | 3 | 43.1 | active |
| CDK9 | 1 | 41.4 | active |
| CDK9 | 2 | 47.3 | active |
| CDK9 | 3 | 49.1 | active |
| DDX3Y | 1 | 51.1 | active |

The list itself, from the start:
| target gene | technical replicate | viability, normalised (%) | activity call |
| --- | --- | --- | --- |
| BOK | 1 | 30.9 | active |
| BOK | 2 | 35.7 | active |
| BOK | 3 | 43.1 | active |
| CDK9 | 1 | 41.4 | active |
| CDK9 | 2 | 47.3 | active |
| CDK9 | 3 | 49.1 | active |
| DDX3Y | 1 | 51.1 | active |
| DDX3Y | 2 | 33.3 | active |
| DDX3Y | 3 | 41.1 | active |
| MSX1 | 1 | 46.9 | active |
| MSX1 | 2 | 42.5 | active |
| MSX1 | 3 | 46.5 | active |
| ROBO1 | 1 | 52.4 | active |
| ROBO1 | 2 | 45.7 | active |
| ROBO1 | 3 | 40.8 | active |
| PTTG3P | 1 | 61.8 | active |
| PTTG3P | 2 | 53.5 | active |
| PTTG3P | 3 | 51.4 | active |
| PRDM8 | 1 | 46.1 | active |
| PRDM8 | 2 | 33.4 | active |
| PRDM8 | 3 | 34.9 | active |
| CLOCK | 1 | 49.2 | active |
| CLOCK | 2 | 42.2 | active |
| CLOCK | 3 | 58.6 | active |
| FASTK | 1 | 49.4 | active |
| FASTK | 2 | 38.7 | active |
| FASTK | 3 | 46.9 | active |
| DHX40 | 1 | 38.9 | active |
| DHX40 | 2 | 32.9 | active |
| DHX40 | 3 | 30.7 | active |
| BRAF | 1 | 50.8 | active |
| BRAF | 2 | 34.7 | active |
| BRAF | 3 | 48.3 | active |
| MAP3K11 | 1 | 51.2 | active |
| MAP3K11 | 2 | 48.8 | active |
| MAP3K11 | 3 | 54.6 | active |
| TRRAP | 1 | 39.7 | active |
| TRRAP | 1 | 49 | active |
| TRRAP | 1 | 52.3 | active |
| TRRAP | 2 | 77.4 | active |
| TRRAP | 2 | 39.6 | active |
| TRRAP | 2 | 31.2 | active |
| TRRAP | 3 | 49.1 | active |
| TRRAP | 3 | 26.4 | active |
| TRRAP | 3 | 66.3 | active |
| ACVR2A | 1 | 38.8 | active |
| ACVR2A | 2 | 48.7 | active |
| ACVR2A | 3 | 53.3 | active |
| HNRNPM | 1 | 59.4 | active |
| HNRNPM | 2 | 75.1 | active |
| HNRNPM | 3 | 62.2 | active |
| PANK1 | 1 | 63.3 | active |
| PANK1 | 2 | 58.8 | active |
| PANK1 | 3 | 47.3 | active |
| CELF1 | 1 | 36.1 | active |
| CELF1 | 2 | 45 | active |
| CELF1 | 3 | 44.8 | active |
| JADE3 | 1 | 58.9 | active |
| JADE3 | 2 | 57.7 | active |
| JADE3 | 3 | 68.6 | active |
| MAP3K14 | 1 | 62.1 | active |
| MAP3K14 | 2 | 67 | active |
| MAP3K14 | 3 | 72.1 | active |
| MACROH2A1 | 1 | 33.5 | active |
| MACROH2A1 | 2 | 37.4 | active |
| MACROH2A1 | 3 | 38.7 | active |
| MYB | 1 | 15.5 | active |
| MYB | 2 | 22.4 | active |
| MYB | 3 | 25.9 | active |
| RASSF7 | 1 | 50.8 | active |
| RASSF7 | 2 | 50 | active |
| RASSF7 | 3 | 64.2 | active |
| LBR | 1 | 53.2 | active |
| LBR | 2 | 35.3 | active |
| LBR | 3 | 48 | active |
